According to US11364209B2, “Methods and compositions for treating atopic dermatitis” (Golden Biotechnology Corporation, priority 2016, dated 2022):
Entries after “also recorded” stand apart in the source; their conditions may differ. At least one structure is not confirmed: it was looked up by name or label, or the drawing left a doubt.

Columns and labels:
IgE = assay: Serum immunoglobulin analysis (sandwich-ELISA); assay type: in vivo, mice; conditions: Groups L, M
OVA induced AD [1] = assay: Delayed allergic reactions (ear and hind limb thickness); assay type: in vivo, mice; conditions: for hind limb thickness (delayed allergic reaction): vs Group O
OVA induced AD [2] = assay: H&E stain of skin specimens (epidermis and dermis layers); assay type: in vivo, mice; conditions: Groups L, M
spleen cells = assay: Cytokine secretion test, spleen cells of treated mice stimulated by PHA, ConA or OVA; assay type: in vivo
lymphocytes = assay: Cytokine secretion test, lymphocytes (lymph nodes) of treated mice stimulated by PHA, ConA or OVA; assay type: in vivo
Langerhans cells = assay: Langerin (Langerhans cell) stain of skin specimens; assay type: in vivo, mice; conditions: Groups L, M, H (5, 15, 45 mg/kg BW), vs Group O
[3] = system: eosinophils in the dermis; assay: Eosinophil stain of skin specimens; assay type: in vivo, mice; conditions: vs Group O
OVA induced AD [4] = assay: Skin surface study: skin condition on the back of OVA-sensitized mice (photos); assay type: in vivo; conditions: vs Group O
[5] = system: thymic stromal lymphopoietin (TSLP); assay: TSLP stain of skin specimens; assay type: in vivo, mice
OVA induced AD [6] = assay: Determination of skin physiology (TEWL, relative humidity, pH; Tewameter TM210); assay type: in vivo, mice
[7] = H (5, 15, 45 mg/kg BW), day 27, vs Group O
[8] = Groups L, M, H (5, 15, 45 mg/kg BW), day 27, vs Group O
[9] = H (5, 15, 45 mg/kg BW), vs Group O
[10] = 24 hours' ConA stimulation, Group H vs Group O
[11] = 24 hours' ConA stimulation, Groups L, M vs Group O
[12] = 24 hours' ConA stimulation, Groups L, M, H vs Group O
[13] = 24 hours' OVA stimulation, each group
[14] = 24 hours' PHA stimulation, each group
[15] = 72 hours' ConA stimulation, Groups L, M, H vs Group O
[16] = 72 hours' ConA stimulation, each group
[17] = 72 hours' OVA stimulation, each group
[18] = 72 hours' PHA stimulation, each group

`COC1=C(OC)C(O)C(C/C=C(\C)CC/C=C(\C)CCC=C(C)C)C(C)C1=O` (stereo not shown) [Compound 1, 4-hydroxy-2,3-dimethoxy-6-methyl-5-(3,7,11-trimethyldodeca-2,6,10-trienyl)cyclohex-2-enone] was tested, and the “amount of OVA specific IgE in serum” value (IgE; [7]) was “statically significantly lower than that in Group O”, the “amount of total IgE in serum” value (IgE; [7]) was “statically significantly lower than that in Group O” and the “dose dependence of total IgE decrease” value (IgE; H, day 27) was “decreased in a dose dependent manner”. For the same molecule, the “hind limb thickness (delayed allergic reaction)” value (OVA induced AD [1]; Group L (5 mg/kg BW)) was “clearly less than that in Group O, where one in Group L is statistically significant”, the “ear thickness (delayed allergic reaction)” value (OVA induced AD [1]; [8]) was “not different from that in Group O” and the “hind limb thickness (delayed allergic reaction)” value (OVA induced AD [1]; Groups M, H (15, 45 mg/kg BW)) was “clearly less than that in Group O”. For the same molecule, the “dose dependence of decrease in thickness of epidermis and dermis” value (OVA induced AD [2]; H) was “dose-dependent manner”, the dermis layer thickness (OVA induced AD [2]; [9]) was “significantly thinner; also recorded: statically significant less thickness compared with Group O” and the epidermis layer thickness (OVA induced AD [2]; [9]) was “significantly thinner; also recorded: statically significant less thickness compared with Group O”. The “infiltration of inflammatory cells in epidermis and dermis layers” value (OVA induced AD [2]; [9]) was “reduced infiltration of the inflammatory cells”, the IL-4 secretion (spleen cells; [10]) was “lower than one in Group O” and the IL-12 secretion (spleen cells; [10]) was “higher than that in Group O”. For the same molecule, the IL-4 secretion (spleen cells; [11]) was “lower than one in Group O, especially statically significant in Group L and Group M”, the IL-12 secretion (spleen cells; [11]) was “higher than that in Group O, especially statically significant in Group L and Group M” and the IFN-γ secretion (spleen cells; [12]) was “statistically significantly higher than one in Group O”. The TNF-α secretion (spleen cells; [12]) was “statistically significantly lower than that in Group O”, the TNF-α secretion (spleen cells; 24 hours' OVA stimulation, Groups L, M, H vs Group O) was “a little bit lower than that in Group O, but were not statistic significant” and the IFN-γ secretion (spleen cells; [13]) was “about the same without showing differences”. For the same molecule, the IL-4 secretion (spleen cells; [13]) was “about the same without showing any differences”, the IL-12 secretion (spleen cells; [13]) was “about the same without showing difference” and the IFN-γ secretion (spleen cells; 24 hours' PHA stimulation, Groups L, M, H vs Group O) was “a little bit higher than that in Group O, but has no statistic meaning”. The IL-12 secretion (spleen cells; [14]) was “about the same”, the TNF-α secretion (spleen cells; [14]) was “about the same” and the IFN-γ secretion (spleen cells; 72 hours' ConA stimulation, Group M vs Group O) was “a little bit higher than one in Group O, especially one in Group M to be statistically significant”. The IFN-γ secretion (spleen cells; 72 hours' ConA stimulation, Groups L, H vs Group O) was “a little bit higher than one in Group O”, the IL-4 secretion (spleen cells; [15]) was “statically significantly lower than one in Group O” and the TNF-α secretion (spleen cells; [15]) was “statistically significantly lower than that in Group O”. The IL-12 secretion (spleen cells; [16]) was “about the same”, the IFN-γ secretion (spleen cells; 72 hours' OVA stimulation, Group H vs Group O) was “a little bit higher than one in Group O but without showing statistical meaning” and the IFN-γ secretion (spleen cells; 72 hours' OVA stimulation, Groups L, M vs Group O) was “about the same as one in Group O”. For the same molecule, the IL-4 secretion (spleen cells; [17]) was “about the same without showing any differences”, the IL-12 secretion (spleen cells; [17]) was “about the same” and the TNF-α secretion (spleen cells; [17]) was “about the same without showing differences”. For the same molecule, the IFN-γ secretion (spleen cells; 72 hours' PHA stimulation, Group H vs Group O) was “a little bit higher than that in Group O, but has no statistic meaning”, the IFN-γ secretion (spleen cells; 72 hours' PHA stimulation, Groups L, M vs Group O) was “about the same as one in Group O” and the IL-12 secretion (spleen cells; [18]) was “about the same”. The TNF-α secretion (spleen cells; [18]) was “about the same”, the IFN-γ secretion (lymphocytes; [12]) was “statistically significantly higher than one in Group O” and the IL-4 secretion (lymphocytes; [12]) was “statistically significantly lower than one in Group O”. The TNF-α secretion (lymphocytes; [12]) was “statistically significantly lower than that in Group O”, the IL-12 secretion (lymphocytes; 24 hours' ConA stimulation, each group) was “about the same” and the IFN-γ secretion (lymphocytes; [13]) was “about the same without showing differences”. The IL-4 secretion (lymphocytes; [13]) was “about the same without showing any differences”, the IL-12 secretion (lymphocytes; [13]) was “about the same” and the TNF-α secretion (lymphocytes; [13]) was “about the same without showing any differences”. For the same molecule, the IFN-γ secretion (lymphocytes; [14]) was “about the same”, the IL-4 secretion (lymphocytes; [14]) was “about the same” and the IL-12 secretion (lymphocytes; [14]) was “about the same”. The TNF-α secretion (lymphocytes; [14]) was “about the same”, the IL-4 secretion (lymphocytes; 72 hours' ConA stimulation, Group L vs Group O) was “lower than one in Group O” and the IFN-γ secretion (lymphocytes; [15]) was “a little bit higher than one in Group O, but without showing statistic meaning”. The TNF-α secretion (lymphocytes; [15]) was “statistically significantly lower than that in Group O”, the IL-4 secretion (lymphocytes; 72 hours' ConA stimulation, Groups M, H vs Group O) was “lower than one in Group O, especially ones in Group M and Group H with statistical significance” and the IL-12 secretion (lymphocytes; [16]) was “about the same”. The IFN-γ secretion (lymphocytes; [17]) was “about the same without showing differences”, the IL-12 secretion (lymphocytes; [17]) was “about the same” and the IFN-γ secretion (lymphocytes; [18]) was “about the same”. The IL-4 secretion (lymphocytes; [18]) was “about the same”, the IL-12 secretion (lymphocytes; [18]) was “about the same” and the TNF-α secretion (lymphocytes; [18]) was “about the same”. The IL-4 secretion (lymphocytes; FIG. 13B (72 hours section), printed: after 24 hours' OVA stimulation, each group) was “about the same without showing any differences”, the TNF-α secretion (lymphocytes; FIG. 13D (72 hours section), printed: after 24 hours' OVA stimulation, each group) was “about the same without showing any differences” and the “Langerhans staining amounts (FIG. 7A-E)” value (Langerhans cells) was “clearly decreased”. The “langerhans-stained cell count (FIG. 7F)” value (Langerhans cells) was “statically significantly lower than that in Group O”, the “number of eosinophils cells in dermis (FIG. 5F)” value ([3]; Group L (5 mg/kg BW)) was “decreased compared with Group O” and the “eosinophils in the dermis (stain, FIG. 5A-E)” value ([3]; Groups L, M, H (5, 15, 45 mg/kg BW)) was “significantly decreased”. The “number of eosinophils cells in dermis (FIG. 5F)” value ([3]; Groups M, H (15, 45 mg/kg BW)) was “number decreased in Group M and Group H is statically significant”, the “skin condition (swelling and inflammation)” value (“skin condition” below) (OVA induced AD [4]; Group H (45 mg/kg BW)) was “better compared to the mice in Group O, with less swelling and inflammatory condition” and the “skin condition” value (OVA induced AD [4]; Group L (5 mg/kg BW)) was “no significant difference”. For the same molecule, the “skin condition” value (OVA induced AD [4]; Group M (15 mg/kg BW)) was “no significant difference”, the “number of TSLP-stained cells in epidermis (FIG. 6F)” value ([5]; Group L (5 mg/kg BW), vs Group O) was “lower than that in Group O” and the “TSLP staining in the dermis (FIG. 6A-E)” value ([5]; Groups L, M, H (5, 15, 45 mg/kg BW), vs Group O) was “significantly decreased”. The “number of TSLP-stained cells in epidermis (FIG. 6F)” value ([5]; Groups M, H (15, 45 mg/kg BW), vs Group O) was “numbers decreased in Group M and Group H are statically significant”, the “amount of TSLP (tissue staining), dose dependence” value ([5]; feeding Compound 1 to mice with AD conditions) was “decreased in a dose dependent manner” and the “relative humidity (RH) value” (OVA induced AD [6]; [8]) was “statically significant lower compared with Group O”. The “transepidermal water loss (TEWL) value” (OVA induced AD [6]; [8]) was “statically significant lower compared with Group O”, the “dose dependence of RH improvement” value (OVA induced AD [6]; Groups L, M, H, day 27) was “dose dependent” and the “dose dependence of TEWL improvement” value (OVA induced AD [6]; Groups L, M, H, day 27) was “dose dependent”. The “skin pH values” (OVA induced AD [6]; each group, day 14 and day 27) was “very similar”.
